Values from PubChem BioAssay AID1224828 (NIAID, 2016)

Aim: 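Regulators linking TLR4 signalling to p65 nuclear translocation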 (primary screen)
System: mouse RAW264.7 G9 macrophage reporter cells (GFP-p65, Tnf promoter-mCherry)
Knock-down reagent: siRNA pool against mouse genes, 100 nM
Time to read-out: 2 days siRNA transfection, then 40 min LPS before fixation
Challenge: LPS (Salmonella minnesota R595) at 10 ng/ml
Measured: 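Imaged p65 nuclear translocation ratio, normalised to the plate median, converted to robust z-scores and averaged across two replicates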
Reading the numbers: p65 translocation robust z-score: higher = more nuclear NF-kappaB p65 after LPS than the plate median; nuclear/cytoplasmic p65 ratio: higher = more nuclear NF-kappaB p65
Call rule: 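Called active when z exceeds 3.3 or falls under -1.56 (median of Tlr4 controls), giving activity score of at least 50; no calls for control wells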
Calls: active = hit (p65 shift raised or lowered); inactive = no clear change
This is a random part of about 17,000 reagents tested. 762 of all reagents (4.5%) count as active. 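Active calls include both raised and lowered p65 entry, mostly lowered; wells with fewer than 50 cells lack a z-score.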 Raw values are not corrected between plates. Unmarked entries are inactive.

target gene | PubChem SID | p65 translocation robust z-score | nuclear/cytoplasmic p65 ratio, rep 1 | nuclear/cytoplasmic p65 ratio, rep 2 | low cell count flag
Bhlhe41 (basic helix-loop-helix family, member e41) | SID315475673 | -0.94 | 1.13 | 1.39 | enough cells to score
Ptger4 (prostaglandin E receptor 4 (subtype EP4)) | SID315468775 | -0.52 | 1.4 | 1.54 | enough cells to score
Itgb1bp2 (integrin beta 1 binding protein 2) | SID315470433 | – | 1.23 | 1.13 | fewer than 50 cells per well; well left out of scoring
Asf1a (anti-silencing function 1A histone chaperone) | SID315472419 | 0.44 | 1.67 | 1.57 | enough cells to score
Tm6sf1 (transmembrane 6 superfamily member 1) | SID315476640 | -0.85 | 1.24 | 1.12 | enough cells to score
Tcstv2a (2 cell stage variable group member 2A) | SID315479302 | 1.01 | 1.79 | 1.8 | enough cells to score
Capn9 (calpain 9) | SID315474755 | 0.42 | 1.48 | 1.84 | enough cells to score
BC005624 (cDNA sequence BC005624) | SID315478590 | 0.64 | 1.64 | 1.99 | enough cells to score
Kank1 (KN motif and ankyrin repeat domains 1) | SID315476594 | – | 1.41 | 1.78 | fewer than 50 cells per well; well left out of scoring
Ncapg2 (non-SMC condensin II complex, subunit G2) | SID315475232 | -0.33 | 1.3 | 1.44 | enough cells to score
Eno3 (enolase 3, beta muscle) | SID315466508 | 0.23 | 1.43 | 1.46 | enough cells to score
Dsg1b (desmoglein 1 beta) | SID315478407 | – | 1.25 | 1.26 | fewer than 50 cells per well; well left out of scoring
Spin1 (spindlin 1) | SID315469424 | 1.2 | 1.58 | 1.36 | enough cells to score
Slc10a4 | SID315478881 | -2.12 (active) | 1.21 | 1.07 | enough cells to score
Akr7a5 (aldo-keto reductase family 7, member A5) | SID315476886 | -0.06 | 1.61 | 1.61 | enough cells to score
Fkrp (fukutin related protein) | SID315479711 | -1.05 | 1.32 | 1.21 | enough cells to score
Zfp57 (zinc finger protein 57) | SID315470124 | -1.36 | 1.24 | 1.09 | enough cells to score
Gbx2 (gastrulation brain homeobox 2) | SID315466847 | 2.07 | 1.71 | 1.64 | enough cells to score
Cdkn1b (cyclin dependent kinase inhibitor 1B) | SID315465914 | 0.23 | 1.75 | 1.39 | enough cells to score
Kif11 (kinesin family member 11) | SID315467609 | – | 1.38 | 1.26 | fewer than 50 cells per well; well left out of scoring
Lamp2 (lysosomal-associated membrane protein 2) | SID315467727 | 1.45 | 1.69 | 1.55 | enough cells to score
Cbll1 (Cbl proto-oncogene like 1) | SID315476463 | -0.17 | 1.57 | 1.75 | enough cells to score
Vps26c (VPS26 endosomal protein sorting factor C) | SID315466281 | -0.24 | 1.45 | 1.31 | enough cells to score
Dnajb6 (DnaJ heat shock protein family (Hsp40) member B6) | SID315470248 | 1.9 | 1.42 | 1.6 | enough cells to score
Dcaf13 (DDB1 and CUL4 associated factor 13) | SID315478263 | 0.25 | 1.8 | 1.47 | enough cells to score
Ubash3a (ubiquitin associated and SH3 domain containing, A) | SID315481495 | -0.09 | 1.55 | 1.44 | enough cells to score
Mchr1 (melanin-concentrating hormone receptor 1) | SID315477504 | -0.96 | 1.34 | 1.48 | enough cells to score
Tshz3 (teashirt zinc finger family member 3) | SID315479723 | -1.38 | 1.24 | 1.08 | enough cells to score
Tmigd1 (transmembrane and immunoglobulin domain containing 1) | SID315472533 | 0.72 | 1.42 | 1.4 | enough cells to score
Borcs5 (BLOC-1 related complex subunit 5) | SID315473221 | 1.13 | 1.81 | 1.79 | enough cells to score
Ftcd (formiminotransferase cyclodeaminase) | SID315466757 | -0.06 | 1.61 | 1.43 | enough cells to score
Apoc4 (apolipoprotein C-IV) | SID315465247 | -0.97 | 1.46 | 1.48 | enough cells to score
Scube1 (signal peptide, CUB domain, EGF-like 1) | SID315472122 | -0.96 | 1.31 | 1.1 | enough cells to score
Prdx4 (peroxiredoxin 4) | SID315471060 | 0.88 | 1.55 | 1.58 | enough cells to score
Chmp4c (charged multivesicular body protein 4C) | SID315472394 | – | 1.25 | 1.47 | fewer than 50 cells per well; well left out of scoring
Klk1b9 (kallikrein 1-related peptidase b9) | SID315466458 | – | 1.38 | 1.58 | fewer than 50 cells per well; well left out of scoring
Med18 (mediator complex subunit 18) | SID315472906 | 0.46 | 1.49 | 1.5 | enough cells to score
Eqtn (equatorin, sperm acrosome associated) | SID315473208 | -1.56 | 1.08 | 1.1 | enough cells to score
Nodal (nodal growth differentiation factor) | SID315468203 | -1.53 | 1.48 | 1.27 | enough cells to score
Eloc (elongin C) | SID315473313 | -1.9 (active) | 1.3 | 1.2 | enough cells to score

In a second layout: entries from further up
target gene	PubChem SID	p65 translocation robust z-score	nuclear/cytoplasmic p65 ratio, rep 1	nuclear/cytoplasmic p65 ratio, rep 2	low cell count flag
Kif11 (kinesin family member 11)	SID315467609		1.38	1.26	fewer than 50 cells per well; well left out of scoring
Lamp2 (lysosomal-associated membrane protein 2)	SID315467727	1.45	1.69	1.55	enough cells to score
Cbll1 (Cbl proto-oncogene like 1)	SID315476463	-0.17	1.57	1.75	enough cells to score
Vps26c (VPS26 endosomal protein sorting factor C)	SID315466281	-0.24	1.45	1.31	enough cells to score
Dnajb6 (DnaJ heat shock protein family (Hsp40) member B6)	SID315470248	1.9	1.42	1.6	enough cells to score
